## Assay results

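Plate-reader measure of the Venus reporter marking one vaccinia stage in infected cells (the cell line is not named here); read time unknown.
The test concentration is not given here.
Percent change in Venus reporter signal; lower (more negative) values mean stronger inhibition of that viral stage.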

Values are in %.
The controls that fix the scale are not given here.
Common to all entries: measured here: Venus reporter, other viral stage.
Part of the compounds only, not a random draw; the main read-out is not listed here.

Compound: COc1cccc(C(=O)Nc2ccc3c(c2)OC[C@@H](C)N(CCc2ccccc2)C[C@H](C)[C@@H](OC)CN(C)C3=O)c1
activity change (Venus) (%): -17.94

Compound: CC(=O)N1CCCCN2[C@H](C1)[C@H](c1ccc(-c3ccc(F)cc3)cc1)[C@@H]2CO
activity change (Venus) (%): -42.35

Compound: Cc1ccc(S(=O)(=O)N(C)C[C@@H]2OCCCC[C@H](C)Oc3ccc(NC(=O)CCC(F)(F)F)cc3C(=O)N([C@@H](C)CO)C[C@@H]2C)cc1
activity change (Venus) (%): -38.91

Compound: Cc1ccc(S(=O)(=O)Nc2ccc3c(c2)C(=O)N([C@@H](C)CO)C[C@H](C)[C@@H](CN(C)Cc2ccc4c(c2)OCO4)OCCCC[C@@H](C)O3)cc1
activity change (Venus) (%): -66.6

Compound: COc1ccc([Si](C)(C)[C@H]2[C@H](CCO)O[C@@]3(C(=O)N(C)c4ccccc43)[C@@H]2C)cc1
activity change (Venus) (%): -42.87

Compound: COc1ccc(CN2[C@H](CO)[C@H]3c4ccccc4N(C(=O)Nc4ccccc4)C[C@H]32)cc1
activity change (Venus) (%): -28.05

Compound: C[C@@H]1CN([C@H](C)CO)S(=O)(=O)c2ccc(C#Cc3ccc(F)cc3)cc2O[C@H]1CN(C)C(=O)NC1CCCCC1
activity change (Venus) (%): -62.98

Compound: O=C(Nc1cccc(F)c1)N1CC(=O)N2[C@@H](CO)[C@@H](c3ccc(-c4ccc(F)cc4)cc3)[C@@H]2C1
activity change (Venus) (%): -22.49

Compound: COc1ccc2c3c(n(C)c2c1)[C@@H](CO)N(CC1CC1)CC31CCN(Cc2ccc(F)cc2)CC1
activity change (Venus) (%): -37.03

Compound: C[C@@H]1CCCCO[C@@H](CN(C)CC2CCCCC2)[C@H](C)CN([C@H](C)CO)C(=O)c2cc(NC(=O)c3ccccc3)ccc2O1
activity change (Venus) (%): -68.62

Compound: C[C@H](CO)N1C[C@H](C)[C@H](CN(C)CC2CCCCC2)OCCCC[C@H](C)Oc2ccc(NC(=O)c3ccccc3)cc2C1=O
activity change (Venus) (%): -65.96

Compound: O=C(Nc1ccccc1)N1C[C@@H]2N[C@H](C1)[C@@H]2c1ccc(/C=C/c2ccccc2)cc1
activity change (Venus) (%): -86.23

Compound: C[C@H](CO)N1C[C@H](C)[C@H](CN(C)C(=O)c2ccccc2F)Oc2ncc(C#Cc3ccc(F)cc3)cc2C1=O
activity change (Venus) (%): -43.32

Compound: Cc1ccc(S(=O)(=O)N2C[C@@H](O)COC[C@@H]3O[C@H](CC(=O)NCc4ccc(Cl)c(Cl)c4)CC[C@H]32)cc1
activity change (Venus) (%): -45.25

Compound: C[C@@H](O)C#Cc1ccc2c(c1)O[C@@H](CN(C)Cc1ccccc1)[C@@H](C)CN([C@@H](C)CO)S2(=O)=O
activity change (Venus) (%): -13.16

Compound: C[C@H]1CN([C@@H](C)CO)S(=O)(=O)c2ccc(C#Cc3ccccc3)cc2O[C@@H]1CN(C)C(=O)Nc1ccccc1
activity change (Venus) (%): -22.53

Compound: C[C@H](CO)N1C[C@H](C)[C@H](CN(C)S(=O)(=O)c2ccc(Cl)cc2)OCc2ccccc2-c2c(n(C)c3ccccc23)C1=O
activity change (Venus) (%): -42.18

Compound: C[C@@H]1CN([C@@H](C)CO)C(=O)c2cccc(NC(=O)c3cnccn3)c2O[C@H]1CN(C)Cc1ccc(-c2ccccc2)cc1
activity change (Venus) (%): -37.63

Compound: C[C@H](CO)N1C[C@H](C)[C@H](CN(C)Cc2ccccc2)Oc2ncc(-c3cc4ccccc4o3)cc2C1=O
activity change (Venus) (%): -59.01

Compound: C[C@@H]1CN([C@H](C)CO)C(=O)CCCn2nncc2CO[C@@H]1CN(C)Cc1cccc(C(F)(F)F)c1
activity change (Venus) (%): -30.79

Compound: C[C@H]1CN([C@@H](C)CO)C(=O)CCCn2nncc2CO[C@H]1CN(C)Cc1ccc(Cl)c(Cl)c1
activity change (Venus) (%): -16.38

Compound: Cc1noc(C)c1S(=O)(=O)Nc1ccc2c(c1)C(=O)N([C@H](C)CO)C[C@H](C)[C@H](CN(C)S(=O)(=O)c1ccccc1)OCCCC[C@H](C)O2
activity change (Venus) (%): -23.34

Compound: Cc1ccc(S(=O)(=O)N(C)C[C@@H]2Oc3c(NC(=O)NC4CCCCC4)cccc3C(=O)N([C@H](C)CO)C[C@@H]2C)cc1
activity change (Venus) (%): -53.89

Compound: Cc1ccc(-c2ccc([C@H]3[C@@H](CO)N4CCCCN(S(=O)(=O)c5ccccc5C)C[C@H]34)cc2)cc1
activity change (Venus) (%): -73.45

For reference, 2 entries once more:

| Compound | activity change (Venus) (%) |
|---|---|
| `C[C@H](CO)N1C[C@H](C)[C@H](CN(C)Cc2ccccc2)Oc2ncc(-c3cc4ccccc4o3)cc2C1=O` | -59.01 |
| `Cc1ccc(S(=O)(=O)Nc2ccc3c(c2)C(=O)N([C@@H](C)CO)C[C@H](C)[C@@H](CN(C)Cc2ccc4c(c2)OCO4)OCCCC[C@@H](C)O3)cc1` | -66.6 |

From PubChem BioAssay record AID1053133 (Broad Institute, 2014).